Results reported in paper PMC8327186.
Results are given in words; binding and its absence hold for the method and conditions named. Binding seen in cells or lysates may run through a third protein. Some entries that bind do so weakly or less than the wild type.

By UniProt entry, the sequences of proteins in these tests, tags left out.
UniProt Q60722: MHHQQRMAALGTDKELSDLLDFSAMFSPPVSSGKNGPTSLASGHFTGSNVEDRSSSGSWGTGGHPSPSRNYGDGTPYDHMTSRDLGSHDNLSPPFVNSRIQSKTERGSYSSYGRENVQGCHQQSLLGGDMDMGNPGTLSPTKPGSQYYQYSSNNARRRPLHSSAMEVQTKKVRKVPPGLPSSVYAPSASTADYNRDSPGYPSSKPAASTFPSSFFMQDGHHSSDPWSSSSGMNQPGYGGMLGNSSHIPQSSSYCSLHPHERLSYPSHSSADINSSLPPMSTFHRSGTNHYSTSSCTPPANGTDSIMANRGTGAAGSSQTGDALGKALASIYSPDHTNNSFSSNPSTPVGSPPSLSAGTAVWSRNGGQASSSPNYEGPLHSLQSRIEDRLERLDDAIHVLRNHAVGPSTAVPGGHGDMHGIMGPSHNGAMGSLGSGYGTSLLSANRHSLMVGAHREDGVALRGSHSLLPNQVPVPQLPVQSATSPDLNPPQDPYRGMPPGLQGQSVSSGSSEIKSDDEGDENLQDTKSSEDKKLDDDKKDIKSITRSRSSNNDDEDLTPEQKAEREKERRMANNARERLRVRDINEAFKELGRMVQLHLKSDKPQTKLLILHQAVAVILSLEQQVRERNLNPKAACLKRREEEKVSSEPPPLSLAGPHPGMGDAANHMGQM
UniProt Q60987: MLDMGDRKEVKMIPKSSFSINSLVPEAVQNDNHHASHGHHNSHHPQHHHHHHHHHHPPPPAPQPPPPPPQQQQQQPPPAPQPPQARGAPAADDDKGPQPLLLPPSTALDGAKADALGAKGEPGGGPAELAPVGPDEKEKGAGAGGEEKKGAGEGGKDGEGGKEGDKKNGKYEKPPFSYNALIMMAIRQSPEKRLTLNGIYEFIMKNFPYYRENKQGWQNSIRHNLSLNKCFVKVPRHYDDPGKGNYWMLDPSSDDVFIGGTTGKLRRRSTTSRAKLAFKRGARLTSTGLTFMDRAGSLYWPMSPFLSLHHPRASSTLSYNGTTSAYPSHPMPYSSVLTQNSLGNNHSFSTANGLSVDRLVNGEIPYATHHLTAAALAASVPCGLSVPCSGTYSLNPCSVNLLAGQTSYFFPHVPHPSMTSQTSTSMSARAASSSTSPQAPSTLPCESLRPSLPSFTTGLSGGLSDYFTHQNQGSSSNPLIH
UniProt Q3TKT4: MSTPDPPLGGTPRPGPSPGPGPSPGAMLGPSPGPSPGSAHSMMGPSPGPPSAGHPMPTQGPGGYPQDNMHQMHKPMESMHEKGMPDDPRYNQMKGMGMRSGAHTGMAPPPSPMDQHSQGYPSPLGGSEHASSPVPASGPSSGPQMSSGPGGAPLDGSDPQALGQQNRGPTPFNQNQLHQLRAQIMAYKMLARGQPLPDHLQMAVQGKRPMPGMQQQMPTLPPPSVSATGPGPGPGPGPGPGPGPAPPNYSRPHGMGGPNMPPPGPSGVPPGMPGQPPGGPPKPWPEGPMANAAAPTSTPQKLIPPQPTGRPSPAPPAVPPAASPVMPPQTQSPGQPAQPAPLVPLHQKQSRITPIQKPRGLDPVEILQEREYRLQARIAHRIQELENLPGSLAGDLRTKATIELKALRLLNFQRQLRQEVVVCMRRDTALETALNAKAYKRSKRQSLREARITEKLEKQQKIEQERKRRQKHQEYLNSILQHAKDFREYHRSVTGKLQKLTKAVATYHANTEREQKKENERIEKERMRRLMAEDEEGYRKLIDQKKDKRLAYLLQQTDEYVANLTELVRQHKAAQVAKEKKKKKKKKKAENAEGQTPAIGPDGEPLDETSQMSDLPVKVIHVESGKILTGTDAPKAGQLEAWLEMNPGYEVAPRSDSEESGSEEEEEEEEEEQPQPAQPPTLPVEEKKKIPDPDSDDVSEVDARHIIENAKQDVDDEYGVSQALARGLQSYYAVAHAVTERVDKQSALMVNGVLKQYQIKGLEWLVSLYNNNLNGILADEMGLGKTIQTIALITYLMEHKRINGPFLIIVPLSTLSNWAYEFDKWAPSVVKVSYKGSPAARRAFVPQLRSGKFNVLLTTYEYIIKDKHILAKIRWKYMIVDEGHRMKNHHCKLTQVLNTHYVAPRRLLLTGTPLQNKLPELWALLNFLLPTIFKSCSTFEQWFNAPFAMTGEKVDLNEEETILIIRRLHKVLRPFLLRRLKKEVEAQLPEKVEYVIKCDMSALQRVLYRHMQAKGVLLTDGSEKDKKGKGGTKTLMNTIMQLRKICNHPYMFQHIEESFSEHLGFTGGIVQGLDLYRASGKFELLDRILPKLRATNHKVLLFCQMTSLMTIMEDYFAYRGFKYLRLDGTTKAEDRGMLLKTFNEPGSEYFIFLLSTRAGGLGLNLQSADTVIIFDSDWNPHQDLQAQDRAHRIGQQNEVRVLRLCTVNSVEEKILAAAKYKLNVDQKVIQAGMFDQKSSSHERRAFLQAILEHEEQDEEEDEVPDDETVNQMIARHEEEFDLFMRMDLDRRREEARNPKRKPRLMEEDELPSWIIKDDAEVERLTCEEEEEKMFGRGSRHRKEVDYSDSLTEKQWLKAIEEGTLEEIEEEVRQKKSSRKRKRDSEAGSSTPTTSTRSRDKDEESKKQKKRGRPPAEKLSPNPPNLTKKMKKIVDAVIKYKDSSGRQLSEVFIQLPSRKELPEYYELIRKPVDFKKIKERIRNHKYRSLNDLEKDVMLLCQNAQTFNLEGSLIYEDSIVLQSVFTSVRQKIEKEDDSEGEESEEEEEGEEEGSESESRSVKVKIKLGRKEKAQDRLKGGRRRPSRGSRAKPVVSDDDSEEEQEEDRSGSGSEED
UniProt P15884: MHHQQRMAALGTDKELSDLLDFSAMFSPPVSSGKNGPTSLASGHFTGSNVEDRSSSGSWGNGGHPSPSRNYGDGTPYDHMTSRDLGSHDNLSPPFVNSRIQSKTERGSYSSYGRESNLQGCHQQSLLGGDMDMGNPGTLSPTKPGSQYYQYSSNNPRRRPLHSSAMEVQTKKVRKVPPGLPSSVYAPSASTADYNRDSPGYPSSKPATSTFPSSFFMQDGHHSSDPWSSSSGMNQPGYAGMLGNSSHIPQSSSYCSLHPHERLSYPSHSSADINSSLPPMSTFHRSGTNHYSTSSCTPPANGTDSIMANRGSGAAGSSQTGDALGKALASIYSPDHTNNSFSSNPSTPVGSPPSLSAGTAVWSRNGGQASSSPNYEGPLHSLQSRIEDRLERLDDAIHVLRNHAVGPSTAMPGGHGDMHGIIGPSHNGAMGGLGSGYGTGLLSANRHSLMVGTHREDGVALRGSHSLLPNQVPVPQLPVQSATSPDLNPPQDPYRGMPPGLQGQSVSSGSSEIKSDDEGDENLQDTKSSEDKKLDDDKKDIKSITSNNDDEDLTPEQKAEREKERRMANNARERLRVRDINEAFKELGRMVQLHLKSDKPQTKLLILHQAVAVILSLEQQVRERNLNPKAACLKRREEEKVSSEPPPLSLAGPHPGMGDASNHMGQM
UniProt P39880: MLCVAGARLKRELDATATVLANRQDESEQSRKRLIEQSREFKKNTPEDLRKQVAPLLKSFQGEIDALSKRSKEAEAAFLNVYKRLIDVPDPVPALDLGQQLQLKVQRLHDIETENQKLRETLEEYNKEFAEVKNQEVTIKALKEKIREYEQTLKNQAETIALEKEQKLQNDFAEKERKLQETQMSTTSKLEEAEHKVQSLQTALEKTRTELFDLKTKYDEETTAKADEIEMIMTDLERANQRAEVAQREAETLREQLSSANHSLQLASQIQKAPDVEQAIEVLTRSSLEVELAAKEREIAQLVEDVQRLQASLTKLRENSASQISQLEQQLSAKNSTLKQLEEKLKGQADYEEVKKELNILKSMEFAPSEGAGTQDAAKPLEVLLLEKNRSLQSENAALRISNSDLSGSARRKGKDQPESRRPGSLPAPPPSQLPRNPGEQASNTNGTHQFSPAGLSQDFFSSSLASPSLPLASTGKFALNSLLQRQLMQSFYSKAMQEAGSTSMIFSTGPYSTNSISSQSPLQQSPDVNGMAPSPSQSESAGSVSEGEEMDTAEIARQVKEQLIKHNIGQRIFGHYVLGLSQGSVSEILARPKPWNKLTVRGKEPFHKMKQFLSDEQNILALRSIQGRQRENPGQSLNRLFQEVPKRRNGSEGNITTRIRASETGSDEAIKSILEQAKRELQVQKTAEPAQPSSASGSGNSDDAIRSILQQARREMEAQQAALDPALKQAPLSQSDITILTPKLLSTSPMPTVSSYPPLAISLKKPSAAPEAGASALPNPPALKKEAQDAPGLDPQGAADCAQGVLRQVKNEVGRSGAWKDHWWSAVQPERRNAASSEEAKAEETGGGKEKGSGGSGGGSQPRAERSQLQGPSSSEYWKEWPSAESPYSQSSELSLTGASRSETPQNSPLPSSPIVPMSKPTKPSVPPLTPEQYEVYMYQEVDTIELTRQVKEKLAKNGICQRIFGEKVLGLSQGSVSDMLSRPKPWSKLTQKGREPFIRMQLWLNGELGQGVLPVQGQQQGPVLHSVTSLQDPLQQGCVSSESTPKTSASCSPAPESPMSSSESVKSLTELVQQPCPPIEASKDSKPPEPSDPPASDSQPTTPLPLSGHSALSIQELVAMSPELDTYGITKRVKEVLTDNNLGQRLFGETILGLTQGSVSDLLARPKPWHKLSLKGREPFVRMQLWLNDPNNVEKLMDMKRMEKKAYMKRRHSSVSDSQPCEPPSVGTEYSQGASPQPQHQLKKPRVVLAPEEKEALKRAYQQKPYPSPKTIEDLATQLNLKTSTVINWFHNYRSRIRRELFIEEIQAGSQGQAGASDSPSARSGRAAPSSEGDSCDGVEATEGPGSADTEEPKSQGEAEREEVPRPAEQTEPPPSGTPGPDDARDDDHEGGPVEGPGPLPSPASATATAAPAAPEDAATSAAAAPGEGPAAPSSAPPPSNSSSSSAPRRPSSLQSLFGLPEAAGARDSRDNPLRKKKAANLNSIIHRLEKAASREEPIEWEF
UniProt Q7M6Y2: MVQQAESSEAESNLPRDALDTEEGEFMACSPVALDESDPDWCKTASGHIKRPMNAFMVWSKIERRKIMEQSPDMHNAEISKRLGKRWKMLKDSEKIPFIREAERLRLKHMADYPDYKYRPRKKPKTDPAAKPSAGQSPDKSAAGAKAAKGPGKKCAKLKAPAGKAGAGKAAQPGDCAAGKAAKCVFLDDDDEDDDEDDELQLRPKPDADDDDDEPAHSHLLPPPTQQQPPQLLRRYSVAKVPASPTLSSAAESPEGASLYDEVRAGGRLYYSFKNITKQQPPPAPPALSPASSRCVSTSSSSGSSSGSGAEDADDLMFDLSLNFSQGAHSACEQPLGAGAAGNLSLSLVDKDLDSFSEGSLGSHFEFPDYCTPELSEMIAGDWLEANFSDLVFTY

B1: POU3F3 (BRN1), endogenous in differentiated mouse neural stem cells (protein, UniProt P31361 1-497)
chain: MATAASNPYLPGNSLLTAGSIVHSDAAGAGGGGGGGGGGGGGAGGGGGGMQPGSAAVTSGAYRGDPSSVKMVQSDFMQGAMAASNGGHMLSHAHQWVTALPHAAAAAAAAAAAAVEASSPWSGSAVGMAGSPQQPPQPPPPPPQGPDVKGGAGREDLHAGTALHHRGPPHLGPPPPPPHQGHPGGWGAAAAAAAAAAAAAAAAHLPSMAGGQQPPPQSLLYSQPGGFTVNGMLSAPPGPGGGGGGAGGGAQSLVHPGLVRGDTPELAEHHHHHHHHAHPHPPHPHHAQGPPHHGGGGAGPGLNSHDPHSDEDTPTSDDLEQFAKQFKQRRIKLGFTQADVGLALGTLYGNVFSQTTICRFEALQLSFKNMCKLKPLLNKWLEEADSSTGSPTSIDKIAAQGRKRKKRTSIEVSVKGALESHFLKCPKPSAQEITNLADSLQLEKEVVRVWFCNRRQKEKRMTPPGIQQQTPDDVYSQVGTVSADTPPPHHGLQTSVQ
B2: POU3F3 (BRN1), overexpressed from pCMV5 rBrn1 (protein, UniProt Q63262 1-497)
chain: MATAASNPYLPGNSLLAAGSIVHSDAAGAGGGGGGGGGGGGGAGGGGGGMQPGSAAVTSGAYRGDPSSVKMVQSDFMQGAMAASNGGHMLSHAHQWVTALPHAAAAAAAAAAAAVEASSPWSGSAVGMAGSPQQPPRPPPPPPQGPDVKGGVGREDLHAGTALHHRGPPHLGPPPPPPHQGHPGGWGAAAAAAAAAAAAAAAAHLPSMAGGQQPPPQSLLYSQPGGFTVNGMLSAPPGPGGGGGGAGGGAQSLVHPGLVRGDTPELAEHHHHHHHHAHPHPPHPHHAQGPPHHGGGGAGPGLNSHDPHSDEDTPTSDDLEQFAKQFKQRRIKLGFTQADVGLALGTLYGNVFSQTTICRFEALQLSFKNMCKLKPLLNKWLEEADSSTGSPTSIDKIAAQGRKRKKRTSIEVSVKGALESHFLKCPKPSAQEITNLADSLQLEKEVVRVWFCNRRQKEKRMTPPGIQQQTPDDVYSQVGTVSADTPPPHHGLQTSVQ

target: TCF4, endogenous in differentiated mouse neural stem cells (isoform not told apart) (mouse (endogenous in neural stem cells from E14.5 neocortex)) (UniProt Q60722); experiment: proximity ligation; fixed 6 day differentiated neural stem cells derived from E14.5 mouse neocortices; mouse monoclonal anti-TCF4 with rabbit anti-BRN1, anti-BRG1 or anti-FOXG1

binding, binds:
FOXG1, endogenous in differentiated mouse neural stem cells (from UniProt Q60987 1-481)
SMARCA4 (BRG1), endogenous in differentiated mouse neural stem cells (from UniProt Q3TKT4 1-1613)
B1

target: Transcription factor 4, long isoform (TCF4B), overexpressed from CAG-TCF4-IRES-GFP (UniProt P15884); experiment: co-IP; HEK 293T cell extract after co-overexpression of TCF4 and one partner; precipitated with mouse monoclonal anti-TCF4 (sc393407) and Protein A agarose beads in TEN-Buffer (10 mM Tris pH 7.4, 50 mM NaCl, NP40), 4°C overnight; controls: anti-BrdU isotype IgG, beads alone; western blot

binding, binds:
CUX1 (p200 CUX1), overexpressed from pXJ42-p200 CUX1 (from UniProt P39880 1-1505)
FOXG1, overexpressed from CAG-Foxg1-IRES-RFP (from UniProt Q60987 1-481)
SMARCA4 (BRG1), overexpressed from pBJ5-hBRG1 (from UniProt P51532 1-1647)
SOX11, overexpressed from CAG-Sox11-IRES-GFP (from UniProt Q7M6Y2 1-395)
B2
